Results deposited as PubChem BioAssay AID504791 (Drosophila RNAi Screening Center, 2011)
The deposit covers about 23,000 reagents; this is a random part of those that have a named target and a result. Over the whole deposit, 199 (0.86%) are marked active. 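Plate-scaled ratios behind the calls are not deposited; printed light signals are raw; many rows marked increased or decreased are still called inactive.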 Names joined by + are all predicted targets of the reagent. Not given: the direction of the score.

Assay: 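Factors in Argonaute-based small RNA production and activity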 (primary screen)
Cell system: Drosophila S2-derived reporter cells
Reagents: long dsRNA against Drosophila genes, about 150-250 ng dsRNA per well (siRNA assay); about 80-120 ng (miRNA assay)
Timing: about 5 days (siRNA assay); about 4 days (miRNA assay)
Challenge: copper sulfate induction of reporters: 25 µM (siRNA assay); 200 mM stated (miRNA assay), 1-2 days before reading
Measured: 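Per-well ratio of Renilla over firefly light, expressed relative to that plate's average ratio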
Call rule: 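First-pass picks had plate-scaled ratios over 1.5 for the siRNA assay, over 1.6 for the miRNA assay, or under 0.6; two distinct dsRNAs had to score alike on retest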

gene	dsRNA	stable siRNA reporter change	miRNA reporter change	stable assay Renilla, run 1 (luminescence)	stable assay firefly, run 1 (luminescence)	call
CecA2	DRSC16604			6927	5.30e5	inactive
CG14357	DRSC14820			9231	5.10e5	inactive
cutlet	DRSC00284			4072	3.96e5	inactive
Ptpa	DRSC00776			49177	1.71e5	inactive
babos	DRSC03923			6966	4.89e5	inactive
babos	DRSC04397			20642	5.08e5	inactive
tbrd-3	DRSC04295		reporter ratio raised past the hit cutoff	6064	3.36e5	inactive
tbrd-3	DRSC26310		reporter ratio raised past the hit cutoff			inactive
E(spl)m6-BFM	DRSC16993			7222	3.58e5	inactive
Orp8	DRSC15110			2860	3.91e5	inactive
Orp8	DRSC15712			8544	3.82e5	inactive
CG32533	DRSC19443			7626	5.21e5	inactive
CG32533	DRSC19553			6319	3.05e5	inactive
Obp51a	DRSC22412			4399	4.38e5	inactive
CG9649	DRSC16534			7783	3.97e5	inactive
CG13032	DRSC09912			7543	3.46e5	inactive
CG7512	DRSC10863			7911	4.75e5	inactive
FMRFa	DRSC07428			7354	4.16e5	inactive
CG34286	DRSC13372			4319	4.35e5	inactive
CG34286	DRSC21790			9380	4.85e5	inactive
CG32681	DRSC17646			5943	4.83e5	inactive
e(y)2	DRSC19640			7159	6.19e5	inactive
CG8814	DRSC00707			12959	3.11e5	inactive
CG3036	DRSC00260			4459	4.23e5	inactive
CG3036	DRSC00562			9919	4.20e5	inactive
Ugt304A1	DRSC15127			6475	3.68e5	inactive
CG31957	DRSC00207			4344	2.87e5	inactive
CG10332 (retired record) + IM18	DRSC04064			6536	3.76e5	inactive
GstZ2	DRSC16479			8104	4.16e5	inactive
l(2)SH0834	DRSC02854			7298	3.42e5	inactive
fra	DRSC07621			4970	2.53e5	inactive
CG8728	DRSC07251	reporter ratio raised past the hit cutoff		50124	6.23e5	inactive
Naus	DRSC06011		reporter ratio lowered past the hit cutoff	7754	4.26e5	inactive
Naus	DRSC06469		reporter ratio lowered past the hit cutoff	5035	2.99e5	inactive
Naus	DRSC23606		reporter ratio lowered past the hit cutoff			active
Pten	DRSC03402			8239	4.83e5	inactive
CG18557	DRSC00524			7767	5.26e5	inactive
CG17786	DRSC15270			6718	3.35e5	inactive
blow	DRSC07586			8616	4.76e5	inactive
be	DRSC19607			7170	5.09e5	inactive
be	DRSC19944			3547	2.89e5	inactive
be	DRSC19945			4275	2.81e5	inactive
IscU	DRSC16572			7074	5.03e5	inactive
CG34289	DRSC13625			6674	5.58e5	inactive
CG5516	DRSC15826			6814	4.40e5	inactive
CG5516	DRSC21753			8778	6.19e5	inactive
CG31200	DRSC15285			6750	2.36e5	inactive
Taldo	DRSC04320			64303	1.17e6	inactive
cac	DRSC19743			4835	4.01e5	inactive
cac	DRSC20354			7448	4.04e5	inactive
psd	DRSC03131			7144	4.30e5	inactive
CG3517	DRSC15492			7122	2.95e5	inactive
RpS19b	DRSC15773			8693	4.36e5	inactive
CG10013	DRSC14175			6967	2.80e5	inactive
CheA29a	DRSC21486			9143	4.66e5	inactive
CG34129	DRSC15960			7018	2.95e5	inactive
CG11454	DRSC00310			13780	4.65e5	inactive
